Data published in the supplement of paper PMC10849652.
The list shows a part of the results.

By UniProt entry, the sequences of proteins in these tests, tags left out. Where a name states a change or a piece, a line headed by the entry shows the natural chain unless it says otherwise.
UniProt Q9NSI2: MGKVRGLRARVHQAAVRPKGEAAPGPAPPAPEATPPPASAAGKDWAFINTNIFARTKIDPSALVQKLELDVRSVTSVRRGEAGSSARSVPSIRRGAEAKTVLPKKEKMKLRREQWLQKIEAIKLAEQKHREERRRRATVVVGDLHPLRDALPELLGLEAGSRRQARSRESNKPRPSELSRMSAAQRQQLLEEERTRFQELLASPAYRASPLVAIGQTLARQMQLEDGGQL
UniProt P54760: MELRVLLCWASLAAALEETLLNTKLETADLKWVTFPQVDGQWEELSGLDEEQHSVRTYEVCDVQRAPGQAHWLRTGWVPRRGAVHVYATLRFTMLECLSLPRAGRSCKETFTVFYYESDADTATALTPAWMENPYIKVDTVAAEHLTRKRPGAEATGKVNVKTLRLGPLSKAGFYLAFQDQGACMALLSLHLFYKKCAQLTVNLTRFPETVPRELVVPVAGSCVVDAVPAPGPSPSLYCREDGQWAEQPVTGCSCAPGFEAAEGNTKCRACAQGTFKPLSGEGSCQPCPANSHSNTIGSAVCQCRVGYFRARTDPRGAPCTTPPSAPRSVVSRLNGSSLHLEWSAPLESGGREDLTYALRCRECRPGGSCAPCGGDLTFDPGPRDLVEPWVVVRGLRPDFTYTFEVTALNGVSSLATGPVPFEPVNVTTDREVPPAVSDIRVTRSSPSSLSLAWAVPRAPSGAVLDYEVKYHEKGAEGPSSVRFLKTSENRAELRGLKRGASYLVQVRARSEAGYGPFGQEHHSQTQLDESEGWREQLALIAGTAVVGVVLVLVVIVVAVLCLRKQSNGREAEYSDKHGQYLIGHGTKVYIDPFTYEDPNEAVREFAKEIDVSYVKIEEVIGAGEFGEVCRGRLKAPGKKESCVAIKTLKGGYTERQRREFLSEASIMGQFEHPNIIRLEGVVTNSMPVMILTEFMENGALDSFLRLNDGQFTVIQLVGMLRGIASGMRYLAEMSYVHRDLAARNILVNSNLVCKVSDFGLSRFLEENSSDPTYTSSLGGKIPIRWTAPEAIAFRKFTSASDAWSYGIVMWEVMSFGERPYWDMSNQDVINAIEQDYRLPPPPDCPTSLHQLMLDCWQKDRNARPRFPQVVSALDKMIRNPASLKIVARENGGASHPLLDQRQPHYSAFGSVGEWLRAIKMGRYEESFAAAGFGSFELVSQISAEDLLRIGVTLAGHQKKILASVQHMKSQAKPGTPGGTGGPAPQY
UniProt O43491, whole entry, looked up: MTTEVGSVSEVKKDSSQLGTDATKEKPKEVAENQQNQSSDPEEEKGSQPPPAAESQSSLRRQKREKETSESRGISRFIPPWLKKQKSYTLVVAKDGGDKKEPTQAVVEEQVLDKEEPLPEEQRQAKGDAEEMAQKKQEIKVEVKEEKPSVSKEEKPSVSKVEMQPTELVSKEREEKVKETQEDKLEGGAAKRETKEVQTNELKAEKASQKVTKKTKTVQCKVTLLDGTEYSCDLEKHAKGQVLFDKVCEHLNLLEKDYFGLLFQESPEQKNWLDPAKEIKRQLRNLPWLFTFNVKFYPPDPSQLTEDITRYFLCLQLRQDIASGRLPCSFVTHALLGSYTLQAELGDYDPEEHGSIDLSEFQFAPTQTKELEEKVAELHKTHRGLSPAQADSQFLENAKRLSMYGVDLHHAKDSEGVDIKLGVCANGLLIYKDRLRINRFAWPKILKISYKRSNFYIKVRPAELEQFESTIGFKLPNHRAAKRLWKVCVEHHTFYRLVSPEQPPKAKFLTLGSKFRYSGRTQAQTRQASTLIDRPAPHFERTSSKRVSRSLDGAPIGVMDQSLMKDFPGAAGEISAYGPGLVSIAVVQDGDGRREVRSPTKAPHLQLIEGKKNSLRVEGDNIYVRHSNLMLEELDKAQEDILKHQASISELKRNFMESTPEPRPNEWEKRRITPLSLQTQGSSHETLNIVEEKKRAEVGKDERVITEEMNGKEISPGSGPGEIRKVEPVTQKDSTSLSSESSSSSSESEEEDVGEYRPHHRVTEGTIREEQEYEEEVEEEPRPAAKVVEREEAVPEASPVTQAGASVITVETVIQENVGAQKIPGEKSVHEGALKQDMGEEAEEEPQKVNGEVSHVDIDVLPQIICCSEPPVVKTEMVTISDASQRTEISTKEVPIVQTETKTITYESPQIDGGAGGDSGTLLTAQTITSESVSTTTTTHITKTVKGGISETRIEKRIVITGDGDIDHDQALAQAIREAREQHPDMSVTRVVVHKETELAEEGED
UniProt O60447: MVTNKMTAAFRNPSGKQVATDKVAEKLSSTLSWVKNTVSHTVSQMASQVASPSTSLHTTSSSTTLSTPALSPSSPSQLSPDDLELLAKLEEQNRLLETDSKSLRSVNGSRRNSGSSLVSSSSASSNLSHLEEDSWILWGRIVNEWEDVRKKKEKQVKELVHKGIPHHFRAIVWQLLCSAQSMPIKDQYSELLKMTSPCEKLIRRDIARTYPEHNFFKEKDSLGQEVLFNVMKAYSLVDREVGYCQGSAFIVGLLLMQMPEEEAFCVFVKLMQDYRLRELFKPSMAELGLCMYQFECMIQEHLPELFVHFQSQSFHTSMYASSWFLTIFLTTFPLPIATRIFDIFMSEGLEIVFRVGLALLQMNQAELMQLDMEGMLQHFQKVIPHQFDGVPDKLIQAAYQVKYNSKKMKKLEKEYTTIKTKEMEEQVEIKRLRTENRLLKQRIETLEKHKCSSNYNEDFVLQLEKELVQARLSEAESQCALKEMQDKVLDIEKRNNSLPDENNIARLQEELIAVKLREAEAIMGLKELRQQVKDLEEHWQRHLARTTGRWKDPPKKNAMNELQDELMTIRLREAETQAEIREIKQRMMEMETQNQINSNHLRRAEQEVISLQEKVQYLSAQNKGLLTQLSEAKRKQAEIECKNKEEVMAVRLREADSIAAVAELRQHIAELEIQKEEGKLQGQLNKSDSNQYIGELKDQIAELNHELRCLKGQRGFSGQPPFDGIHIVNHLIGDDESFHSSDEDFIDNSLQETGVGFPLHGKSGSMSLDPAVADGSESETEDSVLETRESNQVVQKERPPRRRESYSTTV
UniProt P25116: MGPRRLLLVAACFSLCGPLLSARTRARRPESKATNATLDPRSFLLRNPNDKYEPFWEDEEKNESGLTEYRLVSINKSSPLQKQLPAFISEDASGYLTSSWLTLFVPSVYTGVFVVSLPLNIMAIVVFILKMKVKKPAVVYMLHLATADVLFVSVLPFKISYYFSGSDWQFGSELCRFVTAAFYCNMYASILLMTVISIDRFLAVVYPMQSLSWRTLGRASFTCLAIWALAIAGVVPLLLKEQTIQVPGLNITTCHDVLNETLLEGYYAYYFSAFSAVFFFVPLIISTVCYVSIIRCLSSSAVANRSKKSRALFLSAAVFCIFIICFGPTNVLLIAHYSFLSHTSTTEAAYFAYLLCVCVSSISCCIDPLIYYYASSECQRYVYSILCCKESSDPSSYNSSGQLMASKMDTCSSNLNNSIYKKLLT
UniProt P00488: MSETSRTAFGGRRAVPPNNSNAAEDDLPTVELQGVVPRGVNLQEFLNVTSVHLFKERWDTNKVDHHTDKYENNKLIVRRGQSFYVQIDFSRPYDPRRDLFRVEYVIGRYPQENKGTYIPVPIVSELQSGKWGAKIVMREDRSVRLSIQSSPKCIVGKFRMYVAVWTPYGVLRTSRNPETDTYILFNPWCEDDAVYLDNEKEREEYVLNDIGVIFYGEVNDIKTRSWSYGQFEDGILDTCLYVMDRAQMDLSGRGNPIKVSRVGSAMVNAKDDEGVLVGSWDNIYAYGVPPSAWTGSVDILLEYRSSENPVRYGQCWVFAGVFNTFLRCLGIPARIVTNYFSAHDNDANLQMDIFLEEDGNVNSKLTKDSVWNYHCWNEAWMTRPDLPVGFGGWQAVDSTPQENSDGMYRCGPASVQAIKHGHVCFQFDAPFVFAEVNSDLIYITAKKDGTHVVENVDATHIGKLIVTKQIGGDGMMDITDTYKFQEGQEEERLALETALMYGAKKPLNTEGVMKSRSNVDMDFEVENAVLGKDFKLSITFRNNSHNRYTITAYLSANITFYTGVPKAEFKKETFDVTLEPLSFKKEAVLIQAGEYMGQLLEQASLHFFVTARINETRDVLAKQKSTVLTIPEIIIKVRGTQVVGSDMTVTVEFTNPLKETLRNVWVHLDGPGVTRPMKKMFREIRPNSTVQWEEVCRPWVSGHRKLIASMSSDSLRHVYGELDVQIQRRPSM
UniProt Q6P179: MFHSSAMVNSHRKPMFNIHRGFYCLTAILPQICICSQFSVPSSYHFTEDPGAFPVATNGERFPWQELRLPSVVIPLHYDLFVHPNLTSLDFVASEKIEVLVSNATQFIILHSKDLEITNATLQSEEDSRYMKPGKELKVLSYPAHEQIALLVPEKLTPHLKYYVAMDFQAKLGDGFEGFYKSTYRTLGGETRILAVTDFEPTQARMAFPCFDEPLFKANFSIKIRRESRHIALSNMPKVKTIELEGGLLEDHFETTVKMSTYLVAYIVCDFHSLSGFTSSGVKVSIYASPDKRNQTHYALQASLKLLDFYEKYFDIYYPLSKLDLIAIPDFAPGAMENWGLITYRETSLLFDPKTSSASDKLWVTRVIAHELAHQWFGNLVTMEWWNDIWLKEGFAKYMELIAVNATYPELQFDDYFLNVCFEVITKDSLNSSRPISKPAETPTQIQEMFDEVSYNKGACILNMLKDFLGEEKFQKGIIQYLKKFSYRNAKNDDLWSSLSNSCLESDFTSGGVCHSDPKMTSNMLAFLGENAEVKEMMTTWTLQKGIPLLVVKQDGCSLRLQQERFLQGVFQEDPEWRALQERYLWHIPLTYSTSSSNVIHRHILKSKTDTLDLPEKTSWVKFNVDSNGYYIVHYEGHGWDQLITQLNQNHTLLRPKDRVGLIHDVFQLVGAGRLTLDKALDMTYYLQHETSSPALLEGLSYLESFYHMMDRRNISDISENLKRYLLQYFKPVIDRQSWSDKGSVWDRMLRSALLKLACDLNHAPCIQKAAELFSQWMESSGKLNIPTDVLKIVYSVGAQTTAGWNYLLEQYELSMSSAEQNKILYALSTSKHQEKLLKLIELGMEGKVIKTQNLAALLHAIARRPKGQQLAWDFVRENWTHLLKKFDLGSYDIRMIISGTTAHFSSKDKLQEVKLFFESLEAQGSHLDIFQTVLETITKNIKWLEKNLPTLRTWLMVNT
UniProt Q86X53: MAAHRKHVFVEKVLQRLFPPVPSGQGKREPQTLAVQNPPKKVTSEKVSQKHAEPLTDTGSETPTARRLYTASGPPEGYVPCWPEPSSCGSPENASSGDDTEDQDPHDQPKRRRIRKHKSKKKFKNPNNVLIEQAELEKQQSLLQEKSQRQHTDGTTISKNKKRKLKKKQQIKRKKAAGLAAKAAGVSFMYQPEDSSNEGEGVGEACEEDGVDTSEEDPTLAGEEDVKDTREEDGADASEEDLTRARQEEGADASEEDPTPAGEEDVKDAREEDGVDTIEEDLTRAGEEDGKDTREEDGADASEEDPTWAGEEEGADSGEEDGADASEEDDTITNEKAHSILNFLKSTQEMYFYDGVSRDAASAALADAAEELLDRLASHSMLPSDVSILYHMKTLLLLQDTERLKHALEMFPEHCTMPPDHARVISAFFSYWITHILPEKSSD
UniProt O95864: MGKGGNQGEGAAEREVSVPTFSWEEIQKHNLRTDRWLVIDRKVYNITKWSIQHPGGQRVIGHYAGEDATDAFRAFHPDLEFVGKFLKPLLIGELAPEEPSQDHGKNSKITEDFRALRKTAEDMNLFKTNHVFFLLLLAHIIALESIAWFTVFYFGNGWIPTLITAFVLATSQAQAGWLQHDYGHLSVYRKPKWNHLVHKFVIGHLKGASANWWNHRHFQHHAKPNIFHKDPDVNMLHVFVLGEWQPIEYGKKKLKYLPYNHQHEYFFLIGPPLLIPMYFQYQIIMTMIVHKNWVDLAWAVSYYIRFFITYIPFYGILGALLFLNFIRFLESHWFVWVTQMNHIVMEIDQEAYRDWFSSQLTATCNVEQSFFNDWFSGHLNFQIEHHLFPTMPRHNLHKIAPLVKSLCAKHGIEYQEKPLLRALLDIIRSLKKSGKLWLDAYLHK
UniProt Q9BYI3: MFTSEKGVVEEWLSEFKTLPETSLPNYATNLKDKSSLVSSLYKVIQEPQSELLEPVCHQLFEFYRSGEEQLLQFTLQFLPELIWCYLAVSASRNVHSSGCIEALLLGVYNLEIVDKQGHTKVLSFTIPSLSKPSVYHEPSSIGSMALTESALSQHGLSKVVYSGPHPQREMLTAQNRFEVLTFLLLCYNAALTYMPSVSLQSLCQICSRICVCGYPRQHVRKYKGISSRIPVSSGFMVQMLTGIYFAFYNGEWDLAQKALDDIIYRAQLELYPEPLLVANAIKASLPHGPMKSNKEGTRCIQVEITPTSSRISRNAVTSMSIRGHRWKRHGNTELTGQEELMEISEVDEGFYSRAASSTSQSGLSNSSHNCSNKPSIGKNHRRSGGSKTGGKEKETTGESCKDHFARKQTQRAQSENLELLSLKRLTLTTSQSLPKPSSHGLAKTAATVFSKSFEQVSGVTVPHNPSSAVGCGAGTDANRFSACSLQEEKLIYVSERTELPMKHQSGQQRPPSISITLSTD

Assays:
Test in all cases: log2 fold change, soluble protein after heating vs DMSO (PISA); higher = thermal stabilisation; K562 cells, 10 uM, 30 min; active = over 0.2 and 3.5 SD of the protein, either way, in both replicates (recomputed)
[1] = compound: CS(=O)(=O)c1ccc(-c2cnc(N)c(C(=O)Nc3ccccc3)n2)cc1
Outline: (§1)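 Thermal stability values are relative to control samples and come from duplicates. They are expressed as log2 fold changes. For measurement, K562 cells (2×10^6 cells/mL) received 10 μM compound for 30 min, and aliquots were heated for 3 min over 48°C-58°C, pooled, and extracted at 4°C in PBS with 0.5% NP-40. Soluble protein, the supernatant after 21,000xg for 90 min, was quantified by TMTpro 16plex LC-MS/MS with equalised channel sums.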

duvelisib = compound: C[C@H](Nc1ncnc2nc[nH]c12)c1cc2cccc(Cl)c2c(=O)n1-c1ccccc1 [duvelisib]
Outline: as §1

gandotinib = compound: Cc1cc(Nc2cc(CN3CCOCC3)c3nc(C)c(Cc4ccc(Cl)cc4F)n3n2)n[nH]1 [gandotinib]
Outline: as §1

[2] = compound: Cc1cc(SCc2sc(-c3ccc(C(F)(F)F)cc3)nc2C)ccc1OCC(=O)O
Outline: as §1

ispinesib = compound: Cc1ccc(C(=O)N(CCCN)[C@@H](c2nc3cc(Cl)ccc3c(=O)n2Cc2ccccc2)C(C)C)cc1 [ispinesib]
Outline: as §1

bafetinib = compound: Cc1ccc(NC(=O)c2ccc(CN3CC[C@H](N(C)C)C3)c(C(F)(F)F)c2)cc1Nc1nccc(-c2cncnc2)n1 [bafetinib]
Outline: as §1

[3] = compound: Cc1cccc(CC(=O)N2CCc3c2ccc(-c2cn(C)c4ncnc(N)c24)c3F)n1
Outline: as §1

dasatinib = compound: Cc1nc(Nc2ncc(C(=O)Nc3c(C)cccc3Cl)s2)cc(N2CCN(CCO)CC2)n1 [dasatinib]
Outline: as §1

[4] = compound: Cn1cc(-c2ccc3nnc(C(F)(F)c4ccc5ncccc5c4)n3n2)cn1
Outline: as §1

crizotinib = compound: C[C@@H](Oc1cc(-c2cnn(C3CCNCC3)c2)cnc1N)c1c(Cl)ccc(F)c1Cl [crizotinib]
Outline: as §1

[5] = compound: C[C@@H]1COCCN1C2=NC(=NC(=C2)C3(CC3)S(=O)(=O)C)C4=C5C=CNC5=CC=C4
Outline: as §1

[6] = compound: C[C@H](C1=CC=C(C=C1)C(=O)NC2=C3C=CNC3=NC=C2)N
Outline: as §1

doramapimod = compound: Cc1ccc(-n2nc(C(C)(C)C)cc2NC(=O)Nc2ccc(OCCN3CCOCC3)c3ccccc23)cc1 [doramapimod]
Outline: as §1

nilotinib = compound: Cc1cn(-c2cc(NC(=O)c3ccc(C)c(Nc4nccc(-c5cccnc5)n4)c3)cc(C(F)(F)F)c2)cn1 [nilotinib]
Outline: as §1

[7] = compound: Cc1nc(Nc2n[nH]c3c2CN(C(=O)N[C@H](CN(C)C)c2ccccc2)C3(C)C)c2sccc2n1
Outline: as §1

[8] = compound: Cc1ncc(-c2ccnc(Nc3ccc(S(C)(=O)=O)cc3)n2)n1C(C)C
Outline: as §1

[9] = compound: Cn1cc(-c2ccc3c(c2)CCN3C(=O)Cc2cccc(C(F)(F)F)c2)c2c(N)ncnc21
Outline: as §1

mubritinib = compound: FC(F)(F)c1ccc(/C=C/c2nc(COc3ccc(CCCCn4ccnn4)cc3)co2)cc1 [mubritinib]
Outline: as §1

tipifarnib = compound: Cn1cncc1[C@@](N)(c1ccc(Cl)cc1)c1ccc2c(c1)c(-c1cccc(Cl)c1)cc(=O)n2C [tipifarnib]
Outline: as §1

tozasertib = compound: Cc1cc(Nc2cc(N3CCN(C)CC3)nc(Sc3ccc(NC(=O)C4CC4)cc3)n2)n[nH]1 [tozasertib]
Outline: as §1

Measured: log2 fold change

ESF1 (UniProt Q9H501)
inactive: [1] 0.095 | duvelisib -0.142 | gandotinib -0.075 | [2] -0.099 | ispinesib -0.176 | bafetinib 0.068 | [3] -0.168 | dasatinib 0.053 | [4] -0.234

FAM160A2 isoform 2 (UniProt Q8N612)
inactive: crizotinib -0.004 | [5] 0.042 | [6] -0.041 | gandotinib 0.115 | [2] 0.212 | doramapimod -0.003 | ispinesib -0.192 | bafetinib -0.208 | [3] -0.145 | nilotinib -0.085 | [7] 0.192 | dasatinib -0.186 | [8] -0.101 | [9] -0.083 | [4] 0.046 | mubritinib 0.093

EPG5 (UniProt Q9HCE0)
inactive: [1] 0.129 | [5] 0.295 | duvelisib 0.252 | [2] 0.105 | ispinesib 0.026 | dasatinib -0.138 | [4] -0.013

FAM171A1 (UniProt Q5VUB5)
inactive: crizotinib 0.073 | [5] 0.136 | gandotinib -0.22 | doramapimod -0.052 | [3] 0.146 | tipifarnib 0.085

EPS8L2 isoform 3 (UniProt Q9H6S3)
inactive: [1] -0.074 | [5] -0.067 | duvelisib -0.239 | tozasertib 0.137 | [2] -0.075 | ispinesib 0.099 | dasatinib 0.262 | [4] 0.017

FAM204A (UniProt Q9H8W3)
inactive: [1] 0.054 | [5] -0.267 | [6] 0.194 | gandotinib 0.037 | tozasertib 0.157 | [3] -0.126 | [9] 0.017 | mubritinib -0.107

ERF (UniProt P50548)
inactive: [1] 0.173 | [5] -0.05 | gandotinib -0.29 | [3] 0.194
active: tozasertib -1.2

FAM207A (UniProt Q9NSI2)
inactive: [1] 0.009 | crizotinib 0.075 | [5] 0.08 | gandotinib -0.039 | [2] -0.098 | doramapimod 0.101 | ispinesib -0.077 | bafetinib 0.002 | [3] 0.076 | nilotinib -0.071 | [7] -0.087 | dasatinib 0.006 | [8] -0.059 | [4] -0.127 | tipifarnib 0.003 | mubritinib -0.238

FAM117B (UniProt Q6P1L5)
inactive: crizotinib 0.563 | [5] 0.007 | [6] -0.021 | gandotinib -0.164 | [2] 0.257 | doramapimod 0.21 | ispinesib -0.057 | [3] 0.01 | dasatinib 0.207 | [9] -0.029 | [4] 0.072

ERI3 (UniProt H0Y4B0)
inactive: [1] 0.07 | [5] -0.433 | bafetinib -0.139

EPHB4 (UniProt P54760)
inactive: [1] 0.15 | ispinesib -0.016 | [4] -0.051 | tipifarnib -0.257 | mubritinib 0.176

ERCC8 (UniProt Q13216)
inactive: [1] 0.086 | crizotinib -0.078 | [6] 0.127 | duvelisib 0.211 | gandotinib 0.123 | tozasertib 0.091 | [2] -0.037 | doramapimod 0.051 | ispinesib 0.047 | bafetinib 0.088 | [3] 0.017 | nilotinib 0.055 | [7] -0.016 | dasatinib 0.014 | [8] -0.103 | [9] -0.034 | [4] 0.041 | tipifarnib 0.231 | mubritinib -0.004

EXOC8 (UniProt Q8IYI6)
active: crizotinib -0.32 | ispinesib -0.364
inactive: [1] -0.062 | [5] 0.109 | [6] 0.053 | gandotinib -0.203 | [2] 0.063 | doramapimod 0.007 | bafetinib -0.081 | [3] 0.071 | nilotinib -0.054 | [7] -0.137 | dasatinib -0.1 | [8] -0.012 | [9] -0.015 | [4] 0.028 | tipifarnib -0.038 | mubritinib 0.039

EPB41L2 isoform 4 (UniProt O43491)
inactive: [1] -0.119 | crizotinib -0.065 | [5] 0.423 | doramapimod 0.129 | bafetinib 0.195 | nilotinib -0.118 | [7] 0.098 | [8] -0.127 | tipifarnib -0.235 | mubritinib -0.159

Looked up one by one from above, 4 records:
ERCC8 (UniProt Q13216)
inactive: [1] 0.086 | crizotinib -0.078 | [6] 0.127 | duvelisib 0.211 | gandotinib 0.123 | tozasertib 0.091 | [2] -0.037 | doramapimod 0.051 | ispinesib 0.047 | bafetinib 0.088 | [3] 0.017 | nilotinib 0.055 | [7] -0.016 | dasatinib 0.014 | [8] -0.103 | [9] -0.034 | [4] 0.041 | tipifarnib 0.231 | mubritinib -0.004

EXOC8 (UniProt Q8IYI6)
active: crizotinib -0.32 | ispinesib -0.364
inactive: [1] -0.062 | [5] 0.109 | [6] 0.053 | gandotinib -0.203 | [2] 0.063 | doramapimod 0.007 | bafetinib -0.081 | [3] 0.071 | nilotinib -0.054 | [7] -0.137 | dasatinib -0.1 | [8] -0.012 | [9] -0.015 | [4] 0.028 | tipifarnib -0.038 | mubritinib 0.039

FAM207A (UniProt Q9NSI2)
inactive: [1] 0.009 | crizotinib 0.075 | [5] 0.08 | gandotinib -0.039 | [2] -0.098 | doramapimod 0.101 | ispinesib -0.077 | bafetinib 0.002 | [3] 0.076 | nilotinib -0.071 | [7] -0.087 | dasatinib 0.006 | [8] -0.059 | [4] -0.127 | tipifarnib 0.003 | mubritinib -0.238

EPHB4 (UniProt P54760)
inactive: [1] 0.15 | ispinesib -0.016 | [4] -0.051 | tipifarnib -0.257 | mubritinib 0.176

Following part.

FAM126B (UniProt Q8IXS8)
inactive: duvelisib 0.19 | gandotinib -0.145 | [2] 0.079 | [3] -0.018 | nilotinib -0.073 | [7] 0.072 | dasatinib -0.129 | [8] 0.212 | tipifarnib 0.001

EVI5 isoform 2 (UniProt O60447)
inactive: [6] 0.067 | duvelisib 0.042 | gandotinib -0.111 | tozasertib 0.504 | [2] -0.029 | ispinesib -0.228 | [3] 0.088 | dasatinib -0.202 | [9] -0.147 | [4] 0.013 | tipifarnib 0.01

EYA3 (UniProt Q99504)
inactive: [6] 0.179 | gandotinib -0.261 | tozasertib 0.043 | [3] 0.053 | [9] 0.149 | mubritinib -0.157

F2RL3 (UniProt Q96RI0)
inactive: [6] -0.159 | [2] -0.059 | ispinesib 0.004 | dasatinib -0.03 | [9] -0.051 | [4] 0.043 | tipifarnib -0.016

F13B (UniProt P05160)
inactive: [6] -0.307 | tozasertib 0.104 | [9] -0.002

FAM185A (UniProt Q8N0U4)
inactive: crizotinib 0.124 | duvelisib -0.248 | tozasertib -0.047 | [2] -0.273 | doramapimod 0.044 | ispinesib 0.279 | bafetinib -0.047 | nilotinib -0.024 | [7] 0.056 | dasatinib -0.145 | [8] 0.009 | [4] 0.061 | tipifarnib 0.093 | mubritinib 0.075

EVA1B (UniProt Q9NVM1)
inactive: mubritinib -0.313

EXOG (UniProt Q9Y2C4)
inactive: [6] -0.005 | duvelisib -0.007 | gandotinib 0.05 | tozasertib 0.176 | [2] 0.036 | ispinesib 0.101 | [3] -0.051 | dasatinib -0.11 | [9] -0.032 | [4] 0.123 | tipifarnib 0.091 | mubritinib 0.025

EWSR1 (UniProt H7BY36)
inactive: [5] -0.077 | [6] 0.01 | bafetinib -0.037 | nilotinib 0.068 | [7] 0.291 | [8] 0 | [9] 0.09 | tipifarnib 0.063 | mubritinib 0.093

FAM178B (UniProt Q8IXR5)
inactive: gandotinib -0.097 | [3] -0.028

F9 (UniProt P00740)
inactive: [6] -0.137 | duvelisib -0.047 | tozasertib 0.007 | [2] -0.326 | bafetinib -0.081 | nilotinib -0.119 | [7] -0.16 | dasatinib -0.184 | [8] 0.31 | [9] 0.045 | tipifarnib -0.139

FAM171A2 (UniProt A8MVW0)
inactive: gandotinib -0.069 | ispinesib 0.115 | [3] -0.044 | [4] -0.155

FAM120B (UniProt Q96EK7)
inactive: gandotinib 0.065 | [3] 0.367

F2R (UniProt P25116)
inactive: [6] -0.087 | gandotinib 0 | tozasertib 0.195 | [3] 0.114 | [9] -0.077 | tipifarnib 0.006

EPHX2 (UniProt E5RI53)
inactive: [5] 0.067 | bafetinib -0.17

FAM102B (UniProt Q5T8I3)
inactive: [5] -0.159 | ispinesib 0.039 | [4] 0.032 | tipifarnib -0.03

ETF1 isoform 2 (UniProt P62495)
inactive: duvelisib 0.047 | gandotinib -0.299 | [2] -0.144 | ispinesib -0.257 | bafetinib -0.18 | [3] 0.006 | dasatinib -0.047 | [4] 0.166 | tipifarnib 0.1

FADS1 (UniProt F5GYH4)
inactive: crizotinib -0.079 | doramapimod 0.106 | bafetinib 0.034

FAM110A (UniProt Q9BQ89)
inactive: [5] -0.224 | gandotinib -0.076 | [3] 0.005

F13A1 (UniProt P00488)
inactive: duvelisib 0.205 | tozasertib -0.216 | [2] -0.011 | bafetinib -0.169 | nilotinib -0.09 | [7] 0.039 | dasatinib -0.006 | [8] 0.08 | mubritinib -0.191

ERAP2 (UniProt Q6P179)
inactive: [5] 0.135 | duvelisib 0.116 | [2] -0.078 | nilotinib 0.364 | [7] -0.034 | dasatinib 0.02 | [8] 0.029 | tipifarnib 0.022 | mubritinib -0.112

EPC1 (UniProt Q9H2F5)
inactive: ispinesib -0.233 | [4] 0.136 | mubritinib -0.47

FAM122B isoform 2 (UniProt Q7Z309)
inactive: [6] -0.014 | [9] 0.031 | mubritinib -0.015

EPS8L1 (UniProt Q8TE68)
inactive: [5] -0.333 | [6] -0.058 | duvelisib -0.015 | [2] 0.114 | bafetinib -0.437 | dasatinib -0.029 | [9] 0.005

EPB41L5 (UniProt Q9HCM4)
inactive: [5] -0.032

FAM107B isoform 2 (UniProt Q9H098)
inactive: [5] -0.009 | duvelisib -0.017 | gandotinib -0.054 | [2] -0.041 | [3] -0.032 | dasatinib 0.005

ERMARD (UniProt Q5T6L9)
inactive: [6] -0.031 | [9] 0.408 | mubritinib 0.01

FAAP20 isoform 2 (UniProt Q6NZ36)
inactive: [5] 0.233 | gandotinib 0.116 | [3] -0.289 | mubritinib 0.084

ERICH1 (UniProt Q86X53)
inactive: crizotinib -0.027 | tozasertib -0.081 | doramapimod -0.092 | tipifarnib 0.048

FAM174A (UniProt Q8TBP5)
inactive: crizotinib -0.165 | tozasertib -0.065 | doramapimod 0.027

FADS2 (UniProt O95864)
inactive: gandotinib -0.217 | [3] -0.346

FAM126A (UniProt Q9BYI3)
inactive: [5] -0.223 | ispinesib -0.063 | [4] 0.085 | mubritinib 0.041

FAM160B2 (UniProt Q86V87)
inactive: [6] -0.017 | gandotinib 0.328 | [3] 0 | [9] 0.065 | mubritinib -0.074

EPN1 isoform 3 (UniProt Q9Y6I3)
inactive: duvelisib -0.046 | [2] 0.232 | bafetinib 0.025 | dasatinib 0.148
